Data as given in patent US8623996B2, “Cold active enzyme and method thereof” (University Putra Malaysia, priority 2010, dated 2014).
For some of these results: For at least one compound, name, drawing or mass did not settle the structure. Some entries share one result that the patent states for a list of compounds.

Tests used:
[1] = system: LipPI12 protease; test: Organic solvent tolerance of LipPI12 protease; assay type: biochemical, Leucosporodium antarcticum PI12; conditions: 3 ml enzyme solution + 1 ml solvent, 20° C., 30 min
Protocol: Protease activity ?; Lipase activity ? .
Study On LipPI12 organic solvent stability was carried out in reaction mixture containing purified LipPI12 and various solvents. The mixture was incubated at 20° C. with shaking rates at 150 rpm for 30 min. Control reaction was done by mixing the enzyme with water. Relative activity of lipase was determined according Kwon and Rhee (1986) method. Whereby protease assay was done according to Brock et, al., (1982). The effects of various organic solvents on the stability of the cold active LipPI12 were studied. A mixture of 3 ml enzyme solution and 1 ml of an organic solvent was incubated at 20° C. with shaking, and the remaining activity was measured after 30 min of incubation.

[2] = system: LipPI12 lipase; test: Effect of metal ions on LipPI12 lipase activity; assay type: biochemical, Leucosporodium antarcticum PI12; conditions: 1 mM metal ion, 30 min at 20° C., olive oil emulsion
Protocol: Both the lipase and protease were treated with 1 mM of various metal ions for 30 mins prior to enzyme assays. Lipase activity ?; protease activity ? .
Various metal ions were tested by treating the purified enzyme with 1 mM of metal ions such as Na^+, Mg^2+, Ca^2+, Fe^2+, Mn^2+, K^+, Zn^2+ and Cu^2+ for 30 min at 20° C. It was subjected to lipase and protease assays after treatment. The effects of various metal ions were tested on the purified LipPI12 activity and the remaining activity was assayed using olive oil emulsion. […] This is an indication which explains the role of Ca ion which may work as a stabilizer to the molecule, as predicted in the LipPI12 3D model. Whereas, the beta roll motif, served as a metal binding site, presumably predicted for the Ca ions. […] Na^+ Mg^2+ and Fe^2+ have toxic effect to the enzyme. Other metal ions tested were CuCl2, ZnCl2 and MnCl2, which had obviously made the lipase to be slightly stable and with no elimination of activity relatively not less than 50% (FIG. 27).

[3] = system: isolate PI12; test: Antibiotic resistance of isolate PI12; assay type: cell-based, Leucosporodium antarcticum
Protocol: The bacterium was grown in nutrient broth and agar plates at 4° C. without shaking. Visible growth was observed after one week of incubation. […] The growth of isolate PI12 was inhibited at 25-37° C.
Extracellular enzyme activities, by isolate PI12 namely protease and lipase, were also observed.

Row | Compound | protease activity as compared to the reaction in water [1] | further results
1 | CCCCCCC [heptane] | more than 100% | 
2 | [Cl][Cu][Cl] [CuCl2] |  | lipase activity as compared to the control [2]: not less than 50%
3 | CCCCCCCCCCCC [dodecane] | more than 100% | 
4 | NC[C@H]1O[C@H](O[C@H]2[C@H](O)[C@@H](O[C@H]3O[C@H](CO)[C@@H](O)[C@H](N)[C@H]3O)[C@H](N)C[C@@H]2N)[C@H](O)[C@@H](O)[C@@H]1O [Kanamycin] |  | resistance of isolate PI12 [3]: resistance
